Results are given in words; binding and its absence hold for the method and conditions named. Some results given as binding are weak or reduced against the parent protein; the word gives no strength.
Assays:
[1] = molecular target: Thrombospondin (TSP-1) (UniProt P07996); experiment: optical biosensor, TSP-1 coupled to cuvette (FIG. 42)
[2] = molecular target: Thrombospondin (TSP-1) (UniProt P07996); experiment: optical biosensor, TSP-1 coupled to cuvette, test protein at 10 nm

By UniProt entry, the sequences of proteins in these tests, tags left out. Where a name states a change or a piece, a line headed by the entry shows the natural chain unless it says otherwise. Residues count along the entry.
UniProt P07996, residues 19-1170: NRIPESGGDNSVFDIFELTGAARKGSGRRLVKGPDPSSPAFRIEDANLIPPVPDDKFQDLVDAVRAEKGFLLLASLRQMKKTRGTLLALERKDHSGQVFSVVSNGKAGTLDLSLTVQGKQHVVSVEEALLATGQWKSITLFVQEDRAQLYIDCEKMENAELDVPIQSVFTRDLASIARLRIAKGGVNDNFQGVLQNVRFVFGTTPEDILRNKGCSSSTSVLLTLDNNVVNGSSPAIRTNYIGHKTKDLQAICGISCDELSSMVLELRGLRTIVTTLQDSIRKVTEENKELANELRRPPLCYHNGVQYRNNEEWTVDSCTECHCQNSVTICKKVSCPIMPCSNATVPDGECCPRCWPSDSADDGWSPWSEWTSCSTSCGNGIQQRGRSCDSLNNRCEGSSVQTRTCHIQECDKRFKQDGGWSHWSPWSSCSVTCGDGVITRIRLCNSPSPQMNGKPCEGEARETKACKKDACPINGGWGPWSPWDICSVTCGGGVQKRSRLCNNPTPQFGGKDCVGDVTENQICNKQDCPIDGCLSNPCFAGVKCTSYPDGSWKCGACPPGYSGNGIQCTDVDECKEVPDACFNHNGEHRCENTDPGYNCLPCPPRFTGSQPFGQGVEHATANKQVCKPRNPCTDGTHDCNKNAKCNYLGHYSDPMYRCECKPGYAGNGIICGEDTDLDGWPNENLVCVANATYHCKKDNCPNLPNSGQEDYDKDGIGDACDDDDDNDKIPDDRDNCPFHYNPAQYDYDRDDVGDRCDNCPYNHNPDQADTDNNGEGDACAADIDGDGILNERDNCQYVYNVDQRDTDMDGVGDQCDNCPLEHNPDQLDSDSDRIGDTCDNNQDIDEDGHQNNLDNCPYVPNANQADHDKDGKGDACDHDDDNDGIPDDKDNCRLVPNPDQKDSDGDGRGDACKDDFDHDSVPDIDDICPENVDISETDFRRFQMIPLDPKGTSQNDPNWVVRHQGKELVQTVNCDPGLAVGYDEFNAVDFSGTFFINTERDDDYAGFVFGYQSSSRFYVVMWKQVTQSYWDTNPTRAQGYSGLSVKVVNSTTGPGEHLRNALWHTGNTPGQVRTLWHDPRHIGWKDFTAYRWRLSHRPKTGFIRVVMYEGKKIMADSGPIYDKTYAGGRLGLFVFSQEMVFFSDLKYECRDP
UniProt P55036: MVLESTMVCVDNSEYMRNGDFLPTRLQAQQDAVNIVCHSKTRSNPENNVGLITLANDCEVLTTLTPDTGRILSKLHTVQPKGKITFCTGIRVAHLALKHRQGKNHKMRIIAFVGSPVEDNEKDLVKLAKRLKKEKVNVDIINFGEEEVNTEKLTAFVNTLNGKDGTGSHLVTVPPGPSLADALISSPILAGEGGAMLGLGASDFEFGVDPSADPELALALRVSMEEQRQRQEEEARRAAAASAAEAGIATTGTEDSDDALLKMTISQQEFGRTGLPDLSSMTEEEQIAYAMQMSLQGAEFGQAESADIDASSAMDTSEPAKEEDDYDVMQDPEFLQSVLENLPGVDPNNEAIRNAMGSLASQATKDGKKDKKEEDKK

binding [1]: binds
binding [2]: binds
Substance: amino terminal fragment of angiocidin (Met1-Lys132) (SEQ ID NO: 24) (from UniProt P55036 1-132) (receptor)

— patent US20030180295A1, “Angiocidin: a Cys-Ser-Val-Thr-Cys-Gly specific tumor cell adhesion receptor” (Philadelphia Health and Education Corporation, priority 1999, published 2003)
